PMC12398073
These are yes or no findings as the source states them, for the method shown. Binding seen in cells or lysates may run through a third protein. Some entries that bind do so weakly or less than the wild type.

By UniProt entry, the sequences of proteins in these tests, tags left out.
UniProt Q8BGW1: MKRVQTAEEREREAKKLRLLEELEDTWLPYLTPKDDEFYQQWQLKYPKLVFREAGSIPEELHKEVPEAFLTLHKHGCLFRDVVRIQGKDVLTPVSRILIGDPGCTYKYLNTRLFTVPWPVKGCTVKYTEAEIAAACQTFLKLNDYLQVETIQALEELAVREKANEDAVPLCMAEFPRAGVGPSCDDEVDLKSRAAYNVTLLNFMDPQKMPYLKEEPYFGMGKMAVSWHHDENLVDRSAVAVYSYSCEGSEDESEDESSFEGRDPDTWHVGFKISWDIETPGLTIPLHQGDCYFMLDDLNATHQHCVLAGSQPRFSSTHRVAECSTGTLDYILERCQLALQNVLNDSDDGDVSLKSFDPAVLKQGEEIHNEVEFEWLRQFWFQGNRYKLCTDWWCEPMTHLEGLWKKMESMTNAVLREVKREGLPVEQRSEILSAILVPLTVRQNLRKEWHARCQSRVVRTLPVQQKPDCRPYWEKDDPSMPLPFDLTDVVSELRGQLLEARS
UniProt Q9CPN8: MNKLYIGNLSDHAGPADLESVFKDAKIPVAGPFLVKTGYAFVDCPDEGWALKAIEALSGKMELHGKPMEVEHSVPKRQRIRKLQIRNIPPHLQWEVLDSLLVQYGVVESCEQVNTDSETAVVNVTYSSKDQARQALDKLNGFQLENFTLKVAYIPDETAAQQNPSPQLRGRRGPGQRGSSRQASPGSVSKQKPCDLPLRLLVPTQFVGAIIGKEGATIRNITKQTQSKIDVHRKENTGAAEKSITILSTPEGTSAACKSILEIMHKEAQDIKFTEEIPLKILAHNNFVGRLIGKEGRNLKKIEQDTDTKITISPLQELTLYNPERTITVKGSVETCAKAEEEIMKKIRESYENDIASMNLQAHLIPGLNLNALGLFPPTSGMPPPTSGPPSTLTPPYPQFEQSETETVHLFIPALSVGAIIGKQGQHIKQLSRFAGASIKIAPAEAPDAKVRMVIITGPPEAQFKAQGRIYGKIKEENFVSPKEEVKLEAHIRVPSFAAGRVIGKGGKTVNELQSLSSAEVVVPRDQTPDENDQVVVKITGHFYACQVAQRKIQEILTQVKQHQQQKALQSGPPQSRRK

T1: KAT8 (mouse (endogenous in cerebellum)) (UniProt Q9D1P2)
T1 sequence: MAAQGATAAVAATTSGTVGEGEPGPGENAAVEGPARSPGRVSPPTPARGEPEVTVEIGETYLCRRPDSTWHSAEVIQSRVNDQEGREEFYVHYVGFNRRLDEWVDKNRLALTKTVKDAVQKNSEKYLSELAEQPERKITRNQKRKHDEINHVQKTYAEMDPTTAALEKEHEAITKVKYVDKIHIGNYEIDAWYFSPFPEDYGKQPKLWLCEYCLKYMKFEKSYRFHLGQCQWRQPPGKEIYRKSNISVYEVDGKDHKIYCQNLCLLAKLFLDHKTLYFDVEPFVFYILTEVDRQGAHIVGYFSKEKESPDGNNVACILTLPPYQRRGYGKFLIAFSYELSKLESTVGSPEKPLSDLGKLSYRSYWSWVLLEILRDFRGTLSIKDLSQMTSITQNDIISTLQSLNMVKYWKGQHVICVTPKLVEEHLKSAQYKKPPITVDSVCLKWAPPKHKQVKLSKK


Assays:
Test in all cases: co-IP; 400 ug mouse cerebellum tissue lysate (E13.5, P3 and adult 16w; Fig. 6G-O) with 4 ug rabbit anti-FTO, anti-KAT8 or anti-IGF2BP3 (IgG as control) on protein A/G magnetic beads overnight at 4 °C; washed six times with PBS, 0.5% Tween-20; western blot; also done on Fto^KO tissue (Supplementary Fig. 6B; less FTO-KAT8)
[1] = target: T1, KAT8 (mouse (endogenous in cerebellum))
[2] = target: FTO (mouse (endogenous in cerebellum)) (UniProt Q8BGW1)
[3] = target: IGF2BP3 (mouse (endogenous in cerebellum)) (UniProt Q9CPN8)

Row | binding [1] | binding [2] | binding [3] | Molecule
1 | binds | – | – | IGF2BP3 (from UniProt Q9CPN8 1-579)
2 | – | binds | binds | KAT8 (protein, UniProt Q9D1P2 1-458) MAAQGATAAVAATTSGTVGEGEPGPGENAAVEGPARSPGRVSPPTPARGEPEVTVEIGETYLCRRPDSTWHSAEVIQSRVNDQEGREEFYVHYVGFNRRLDEWVDKNRLALTKTVKDAVQKNSEKYLSELAEQPERKITRNQKRKHDEINHVQKTYAEMDPTTAALEKEHEAITKVKYVDKIHIGNYEIDAWYFSPFPEDYGKQPKLWLCEYCLKYMKFEKSYRFHLGQCQWRQPPGKEIYRKSNISVYEVDGKDHKIYCQNLCLLAKLFLDHKTLYFDVEPFVFYILTEVDRQGAHIVGYFSKEKESPDGNNVACILTLPPYQRRGYGKFLIAFSYELSKLESTVGSPEKPLSDLGKLSYRSYWSWVLLEILRDFRGTLSIKDLSQMTSITQNDIISTLQSLNMVKYWKGQHVICVTPKLVEEHLKSAQYKKPPITVDSVCLKWAPPKHKQVKLSKK
